Measured values taken from PubChem BioAssay AID1487 (National Center for Advancing Translational Sciences (NCATS), 2009).
The other results are listed elsewhere or left out. Further columns of the screen follow, without active or inactive calls. The list favours compounds with an active or inconclusive main result. The note in brackets gives the kind of curve behind each potency; many fits are weak.

Test: qHTS Assay for Modulators of Lamin A Splicing
Conditions: HeLa LMNA splicing GFP/RFP minigene ratio, 48 h
Outline: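 Read-out is the ratio of GFP to DsRed2 object intensity, acquired by 488 nm laser-scanning cytometry on HeLa lamin A-EGFP minigene reporter cells. Compound incubation 48 hrs at 37 °C in Opti-MEM with 2% FBS; DMSO 0.5% final.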

[1] = measured here: GFP splicing reporter channel
[2] = measured here: RFP viability control channel

Structure (SMILES) | AC50 [1] | AC50 [2]
CNC(=O)COC(=O)CCC(=O)c1cccs1 | 0.251 µM [falling, full curve] | 0.501 µM [falling, full curve]
CCOc1cc(C2C3=C(CCCC3=O)Nc3ccc4ncccc4c32)ccc1O (configuration not stated) | – | 0.00398 µM [falling, full curve, poor fit]
COc1ccccc1NC(=S)NCCSc1ccc(Cl)cc1 | 22.4 µM [rising, single point] | 35.5 µM [rising, single point]
CC1CCCCN1C(=O)CSc1nc2ccccc2nc1Cc1ccccc1 (configuration not stated) | 12.6 µM [falling, single point] | –
CCOc1ccc(N2C(=O)c3[nH]nc(-c4ccccc4)c3C2c2ccc(O)c(OC)c2)cc1 (configuration not stated) | 35.5 µM [falling, partial curve, poor fit] | –
COC(=O)c1cccc(NC(=O)CN2CCN(c3ccc(OC)cc3)CC2)c1 | – | 22.4 µM [rising, single point]
Cc1cccc(Nc2ncnc3c2cnn3C)c1 | – | 0.316 µM [falling, full curve, poor fit]
O=c1c2[nH]c3ccc(F)cc3c2ncn1CCN1CCN(Cc2ccccc2)CC1 | – | 5.62 µM [rising, partial curve, poor fit]
CCN(CC(=O)NC1CCS(=O)(=O)C1)C(=O)/C=C/c1cccs1 (configuration not stated) | 35.5 µM [falling, single point] | –
COc1cc(C(=O)N2CCN(S(=O)(=O)c3ccc(C)cc3)CC2)ccc1OCc1c(C)noc1C | 8.91 µM [rising, partial curve] | 14.1 µM [rising, single point]
Cc1ccc(N/C=C(\[N+](=O)[O-])S(=O)(=O)c2ccccc2)cc1 | 7.94 µM [falling, partial curve, poor fit] | –
COc1ccc(C(C(=O)NC2CCCCC2)N(C(=O)CCl)c2ccc(Cl)cc2)cc1 (configuration not stated) | 35.5 µM [falling, single point] | 35.5 µM [falling, single point]
c1ccc2c(c1)[nH]c1c(N3CCCC3)ncnc12 | – | 15.8 µM [rising, single point]
COc1ccc(NC(=O)CSc2ccc(F)cc2)cc1S(=O)(=O)N1CCCCC1 | – | 14.1 µM [rising, single point]
COc1ccccc1NS(=O)(=O)c1ccc2oc(SCc3ccc(C#N)cc3)nc2c1 | – | 12.6 µM [rising, partial curve]
Cc1nc(N2CCN(C(=O)c3ccco3)CC2)c2c3c(sc2n1)CCC3 | 35.5 µM [rising, single point] | 35.5 µM [rising, single point]
O=S(=O)(c1ccccc1)c1cccc(S(=O)(=O)N2CCCCC2)c1 | – | 31.6 µM [rising, single point]
Nc1c(C(=O)NCc2ccco2)sc2nc(N3CCOCC3)c3c(c12)CCCC3 | 35.5 µM [rising, single point] | 35.5 µM [rising, single point]
CCC(C)(C)NC(=O)C(c1ccccc1F)N(Cc1ccco1)C(=O)Cn1nnc2ccccc21 (configuration not stated) | 7.94 µM [rising, partial curve] | 7.08 µM [rising, partial curve, poor fit]

Structure (SMILES) | AC50 [1] | AC50 [2]
N#CC1=C(N)NC(SCc2ccc(Cl)cc2)=C(C#N)C12CCCCC2 | 12.6 µM [rising, partial curve] | 22.4 µM [rising, partial curve]
CC(C)(C)c1cc(C(=O)Nc2ccccc2)ccn1 | – | 15.8 µM [rising, partial curve]
Cc1nn2c(NCCCN3CCOCC3)c3c(nc2c1-c1ccccc1)CCC3 | 0.316 µM [rising, full curve] | 0.316 µM [rising, full curve]
COc1ccccc1Nc1ncc2c(n1)CCN(CC(C)C)C2 | – | 12.6 µM [rising, partial curve]
COc1cccc(Nc2nc(-c3cccs3)nc3ccccc23)c1 | 20 µM [rising, single point] | 28.2 µM [rising, single point]
Cc1cccc(COCC(Cc2ccccc2)N2CCN(C(=O)c3cccc(C)c3)CCC2=O)c1 (configuration not stated) | – | 10 µM [rising, partial curve, poor fit]
NS(=O)(=O)c1cc(Cl)c(Cl)c(S(N)(=O)=O)c1 | 0.00447 µM [falling, full curve, poor fit] | 0.355 µM [falling, partial curve]
COc1ccc(NC(=O)C2CCN(c3nc4ccccc4[nH]3)CC2)cc1OC | – | 0.0282 µM [falling, full curve, poor fit]
C=CCN(CC=C)C(=S)NC(=O)c1ccc(-c2ccccc2)cc1 | – | 31.6 µM [rising, single point]
COc1ccc(OC)c(NC(=O)Nc2cccc(OCc3cc(=O)n4cc(C)ccc4n3)c2)c1 | 0.0224 µM [falling, full curve, poor fit] | 0.0251 µM [falling, full curve, poor fit]
CC(NC(=O)c1cccc(Nc2nc3ccccc3n3nnnc23)c1)c1ccccc1 (configuration not stated) | 11.2 µM [falling, partial curve] | 10 µM [falling, partial curve]
Cc1ccc(N2CCN(c3ncnc4onc(-c5ccc(F)cc5)c34)CC2)c(C)c1 | – | 10 µM [rising, partial curve, poor fit]
CCCCCOCC1CC(C/C(C)=N/NC(N)=S)C(=O)O1 (configuration not stated) | 5.62 µM [rising, single point] | 35.5 µM [rising, single point]
N#Cc1nc(-c2ccc(OCc3ccccc3)cc2)oc1NCc1cccnc1 | 4.47 µM [rising, partial curve, poor fit] | –
COc1ccc(Cl)cc1S(=O)(=O)N1CCN(Cc2ccc3c(c2)OCO3)CC1 | – | 3.55 µM [rising, single point]
COc1ccc(C(=O)NN(C)c2nc(-c3ccccc3)cc(C)c2S(C)(=O)=O)cc1 | – | 12.6 µM [rising, partial curve, poor fit]
CC(C)Cc1ccc(/C=C/C(=O)NC2CC2)cc1 | 12.6 µM [rising, single point] | –
O=C(CSc1ccc2nnc(-c3ccc(F)cc3)n2n1)N1CCCc2ccccc21 | 1.41 µM [falling, full curve, poor fit] | –
CC(C)Cn1c(N)c(C(=O)COC(=O)c2cccc(F)c2)c(=O)n(C)c1=O | – | 35.5 µM [rising, single point]

Structure (SMILES) | AC50 [1] | AC50 [2]
COc1cccc(OC)c1OCCCOc1cccc2cccnc12 | – | 0.02 µM [rising, full curve, poor fit]
COc1c(C)c2c(c(O)c1C/C=C(\C)CCC(=O)O)C(=O)OC2 | 0.224 µM [falling, full curve] | 0.141 µM [rising, full curve]
CCc1ccc(C(=O)COC(=O)C(CCSC)NC(=O)c2ccccc2)cc1 (configuration not stated) | 6.31 µM [falling, partial curve, poor fit] | –
CCN(CC)S(=O)(=O)c1nnc(NC(=O)COc2ccccc2)s1 | 0.794 µM [rising, single point] | –
CC(C)(C)OC(=O)N1CCC(c2c(C(=O)NCCN3CCOCC3)cnn2-c2cccc(F)c2)CC1 | 0.562 µM [falling, full curve] | 0.112 µM [falling, full curve]
COc1ccc(Oc2ncc3nc(-c4ccc(OC)cc4)c(=O)n(C4CC4)c3n2)cc1 | 7.08 µM [falling, partial curve] | –
O=C(O)C1C2C=CC(C2)C1C(=O)NCc1ccc(Cl)c(Cl)c1 (configuration not stated) | 12.6 µM [rising, single point] | 22.4 µM [rising, single point]
COc1ccc(OCCNC(=O)c2ccccc2OCC(=O)N2CCCCC2)cc1 | – | 31.6 µM [rising, single point]
COc1ccc(C)cc1NC(=O)c1ccc(OC(F)F)cc1 | 35.5 µM [rising, single point] | 35.5 µM [rising, single point]
Oc1c(C(c2ccc(F)cc2)N2CCCC2)sc2nc(-c3ccco3)nn12 (configuration not stated) | 3.98 µM [falling, partial curve, poor fit] | –
O=c1c2ccccc2nc(/C=C/c2ccc([N+](=O)[O-])o2)n1CCCO | 6.31 µM [falling, full curve] | 2.82 µM [falling, full curve]
Cc1ccc(S(=O)(=O)c2cn(C)c3cc(N4CCOCC4)c(F)cc3c2=O)c(C)c1 | 10 µM [falling, single point] | –
CCOc1cc(CNc2ccccc2)cc(Br)c1OCc1ccccc1F | – | 17.8 µM [rising, single point]
COc1ccc(C(=O)c2ccc(Cl)c([N+](=O)[O-])c2)cc1 | 2.82 µM [falling, single point] | 3.55 µM [falling, single point]
O=S(=O)(c1ccc2ccccc2c1)n1cnc2ccccc21 | – | 35.5 µM [rising, single point]
O=C(Oc1ccccc1C(=O)O)c1ccccc1O | 0.00631 µM [falling, full curve, poor fit] | –
Cc1cccc(NC(=O)CN(c2ccc(F)cc2)S(C)(=O)=O)c1 | 35.5 µM [falling, single point] | 35.5 µM [falling, single point]
Cc1ccnc(SCC(=O)Nc2sc3c(c2C#N)CCCC3)n1 | – | 0.708 µM [rising, full curve]

Arranged by formula weight (smallest number first): 3 of the compounds above.
Structure (SMILES) | AC50 [1] | AC50 [2]
COc1ccc(C)cc1NC(=O)c1ccc(OC(F)F)cc1 | 35.5 µM [rising, single point] | 35.5 µM [rising, single point]
COc1ccc(Oc2ncc3nc(-c4ccc(OC)cc4)c(=O)n(C4CC4)c3n2)cc1 | 7.08 µM [falling, partial curve] | –
CC(C)(C)OC(=O)N1CCC(c2c(C(=O)NCCN3CCOCC3)cnn2-c2cccc(F)c2)CC1 | 0.562 µM [falling, full curve] | 0.112 µM [falling, full curve]
